The other results are listed elsewhere or left out. The main result of the screen is listed elsewhere. These columns were measured beside it and carry no call. Compounds called inactive in the main read-out are mostly missing here. The note in brackets gives the kind of curve behind each potency; many fits are weak.
Test: qHTS Assay for Lipid Storage Modulators in Drosophila S3 Cells;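 as to cell number change: cells counted by Cell Tracker Red CMTPX staining in the red channel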
Conditions: BODIPY lipid droplet fluorescence, 18-24 h; for cell number change: measured here: cell count max response, cells fed with added oleic acid
Summary of the method: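 Drosophila S3 cells loaded with oleic acid (400 uM, as added) and compounds at several concentrations; lipid droplets imaged by 488-nm laser-scanning cytometry, 500–530 nm intensity and object ratio to cell channel. Percent activity normalized to 20 uM Triacsin C.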

[1] = measured here: lipid fluorescence (Fed channel) AC50, cells fed with added oleic acid
[2] = measured here: cell number channel AC50, cells fed with added oleic acid

## CCOC(=O)C1CCCN(C(=O)/C=C/c2ccccc2[N+](=O)[O-])C1 (stereo not given)
  cell number change: -15.6%
[1]
  AC50: 6.51 µM [falling, single point]

## Cc1ccc(N(CC(=O)NCC2CCCO2)C(=O)CNS(=O)(=O)c2ccc(Cl)cc2)cc1 (stereo not given)
  cell number change: -7.69%

## CCC1CCC(C(=O)NNC(=O)c2cc(-c3ccco3)[nH]n2)CC1 (stereo not given)
  cell number change: 2.32%
[1]
  AC50: 0.291 µM [falling, partial curve, poor fit]

## COc1ccc(N(C)S(=O)(=O)c2ccc3c(c2)CC(C)N3C(=O)C2CC2)c(OC)c1 (stereo not given)
  cell number change: -23.9%
[1]
  AC50: 29.1 µM [falling, partial curve]

## COc1ccc(N2C(=O)CC(N3CCN(c4ccc(Cl)cc4)CC3)C2=O)cc1 (stereo not given)
  cell number change: -0.365%

## CC(=O)Nc1cccc(C(=O)/C=C/c2ccc(F)cc2)c1
  cell number change: -36.9%
[2]
  AC50: 23.1 µM [falling, single point]
[1]
  AC50: 29.1 µM [falling, single point]

## NC(=O)C1CCCCc2c1[nH]c1ccc(Cl)cc21 (stereo not given)
  cell number change: -19.9%
[1]
  AC50: 29.1 µM [falling, single point]

## O=C(COC(=O)c1cc(S(=O)(=O)N2CCCCC2)ccc1N1CCOCC1)c1ccccc1
  cell number change: 2.99%

## Cn1c(NNC(=O)C(c2ccccc2)c2ccccc2)cc(=O)n(C)c1=O
  cell number change: 35.4%
[2]
  AC50: 3.66 µM [rising, full curve]
[1]
  AC50: 4.61 µM [rising, full curve, poor fit]

## c1ccc(-c2cc(-c3ccccc3)n3ncnc3n2)cc1
  cell number change: -0.686%

## COC(OC)c1nc(SCC(=O)Nc2cccc(Cl)c2)ncc1C(=O)O
  cell number change: -28.7%
[1]
  AC50: 4.11 µM [falling, single point]

## COc1cccc(C(=O)N2CCCN(C)CC2)c1OC
  cell number change: 29.3%
[1]
  AC50: 20.6 µM [rising, single point]

## COc1ccc2cc(CN(Cc3cccnc3)S(=O)(=O)c3ccccc3)c(=O)[nH]c2c1
  cell number change: 41.3%
[2]
  AC50: 13 µM [rising, single point]
[1]
  AC50: 4.61 µM [rising, full curve]

## COCCNC(=O)C1CCCN(S(=O)(=O)c2ccc3c(c2)CC(C)N3C(=O)C2CC2)C1 (stereo not given)
  cell number change: 20.7%
[1]
  AC50: 6.51 µM [rising, single point]

## Cc1cc2oc(=O)cc(CN3CCCCC3C)c2c(C)c1Cl (stereo not given)
  cell number change: 9.25%

## CCOC(=O)/C(=C/c1ccc(OC(=O)c2ccccc2)cc1)C(C)=O
[2]
  AC50: 0.651 µM [rising, full curve, poor fit]
[1]
  AC50: 0.366 µM [rising, full curve]

## CCn1nc(C)c(CNC(=O)c2cc(COc3ccc(F)cc3Cl)on2)c1C
  cell number change: -28.7%
[1]
  AC50: 4.61 µM [falling, full curve]

## CCN(CC(=O)Nc1ccc(NC(C)=O)cc1)C(=O)/C=C/c1ccc([N+](=O)[O-])cc1
  cell number change: 3.09%
[2]
  AC50: 0.231 µM [falling, partial curve, poor fit]

## O=[N+]([O-])c1ccc(N2CCc3ccccc3C2)cc1
  cell number change: 29%
[1]
  AC50: 0.116 µM [rising, partial curve, poor fit]

## COC(=O)c1cc(C)sc1NC(=O)CCCC(=O)O
  cell number change: 1.82%
[1]
  AC50: 1.03 µM [rising, full curve, poor fit]

## COc1ccccc1N(C)S(=O)(=O)c1ccc(C(=O)NNC(=O)c2ccccc2O)cc1
  cell number change: -42.5%
[2]
  AC50: 8.2 µM [falling, partial curve, poor fit]

## COc1ccc(S(=O)(=O)N(C)CC(=O)Nc2ccc3c(c2)OCCO3)cc1OC
  cell number change: -9.33%
[1]
  AC50: 1.3 µM [rising, partial curve]

## COc1ccc(S(=O)(=O)N2CCCC2CNC(=O)C(=O)NC2CCCCCC2)cc1 (stereo not given)
  cell number change: 49.2%
[2]
  AC50: 9.2 µM [rising, partial curve, poor fit]

## CCOc1cccc(OCCCNCCCOC)c1
  cell number change: -2.45%

## O=[n+]1cc(-c2cc3ccccc3o2)n([O-])c2c1CCCC2
  cell number change: -19.9%
[2]
  AC50: 0.82 µM [falling, full curve, poor fit]
[1]
  AC50: 4.61 µM [falling, full curve, poor fit]

## O=C(NCCCN1CCCCC1)C1CCC(=O)N1CCc1ccccc1 (stereo not given)
  cell number change: -3.16%
[1]
  AC50: 0.651 µM [rising, single point]

## COc1cc(C(=O)NNC(=O)COc2ccc(C)cc2)ccc1OCC(=O)N1CCOCC1
  cell number change: 7.65%
[1]
  AC50: 6.51 µM [falling, single point]

## O=C(c1cc(-c2cccs2)nn1-c1ccccc1)N1CCN(S(=O)(=O)c2ccccc2)CC1
[2]
  AC50: 2.59 µM [rising, single point]

## O=C(CSc1n[nH]c(-c2cccs2)n1)N1CCCCC1
[1]
  AC50: 0.0206 µM [falling, full curve, poor fit]

## Cn1c(CN2CCOCC2)nnc1SCC(=O)Nc1nccs1
  cell number change: 22.9%

## O=C(NCCCN=C1NS(=O)(=O)c2ccccc21)c1ccc(F)cc1
  cell number change: -37.1%
[2]
  AC50: 13 µM [falling, partial curve, poor fit]
[1]
  AC50: 11.6 µM [falling, single point]

## CCOC(=O)Cc1csc(NC(=O)CCNS(=O)(=O)c2ccc3c(c2)CCC(=O)N3)n1
  cell number change: -34.9%
[2]
  AC50: 29.1 µM [falling, single point]

## COc1ccccc1N(CC(=O)NC1CCCC1)C(=O)C1(C)CC(=O)N=C2C=CC(C)=CN21 (stereo not given)
  cell number change: -11.1%
[1]
  AC50: 0.58 µM [rising, single point]

## Cn1c(-c2cccs2)[n+](C)c2ccccc21
  cell number change: 25.2%
[2]
  AC50: 0.461 µM [rising, full curve, poor fit]
[1]
  AC50: 2.59 µM [rising, partial curve, poor fit]

## Cc1ccc(N(C)C(=O)CC(C)S(=O)(=O)c2ccc3c(c2)NC(=O)CO3)cc1 (stereo not given)
  cell number change: 11.6%
[2]
  AC50: 1.46 µM [rising, full curve, poor fit]

## Cc1[nH]c2ccccc2c1C(=O)COC(=O)c1c(-c2ccccc2)noc1C
  cell number change: -50%
[2]
  AC50: 5.8 µM [rising, single point]

## Cn1c(SCC(=O)Nc2ccc3c(c2)n(C)c(=O)n3C)nnc1-c1ccncc1
  cell number change: -11.5%
[1]
  AC50: 10.3 µM [rising, partial curve]

## O=C(N/N=C/C=C\c1ccccc1[N+](=O)[O-])c1cccnc1
[2]
  AC50: 0.731 µM [rising, single point]
[1]
  AC50: 1.3 µM [rising, full curve]

## O=C(CSc1ccccc1C(=O)NCc1ccccc1)NC12CC3CC(CC(C3)C1)C2
  cell number change: -33.6%
[2]
  AC50: 16.4 µM [falling, single point]
[1]
  AC50: 14.6 µM [falling, partial curve]

## COc1cc(-c2nnc(COc3ccc4cc(Br)ccc4c3)o2)cc(OC)c1OC
  cell number change: -2.43%
[1]
  AC50: 23.1 µM [rising, single point]

## COC(=O)c1cc(S(=O)(=O)NCC(C)c2ccccc2)cn1C (stereo not given)
  cell number change: -15.3%

## COc1ccccc1NC1=C(Cl)C(=O)N(c2ccccc2)C1=O
  cell number change: -0.797%
[1]
  AC50: 16.4 µM [falling, partial curve, poor fit]

## CCOc1ccc(N(CC(=O)NN=C2CCN(C)CC2)S(=O)(=O)c2ccc(Br)cc2)cc1
  cell number change: -11.3%
[1]
  AC50: 0.58 µM [rising, single point]

## O=C(CSc1nc2ccccc2[nH]1)N1CCN(c2ccc(F)cc2)CC1
  cell number change: 3.75%
[1]
  AC50: 0.116 µM [rising, full curve, poor fit]

## Cc1cc(-c2ccc(C(C)C)c(S(=O)(=O)N3CCOc4ccccc43)c2)on1
  cell number change: -38.2%
[2]
  AC50: 20.6 µM [falling, single point]
[1]
  AC50: 2.91 µM [falling, single point]

## Cc1cccc(NC(=O)c2cc3c(=O)n4ccccc4nc3s2)c1
  cell number change: 6.52%

## CC(=O)Nc1ccc(NC(=O)CSCc2cnn(-c3ccccc3)c2-n2cccc2)cc1
[1]
  AC50: 0.00461 µM [falling, full curve, poor fit]

## COCCNC(=O)C1CC(=O)N(C2CCCCC2)C1 (stereo not given)
  cell number change: 28.8%
[1]
  AC50: 0.651 µM [rising, full curve, poor fit]

## CCCn1c(N)c(N(CCOC)C(=O)c2ccc(N(C)S(=O)(=O)c3ccc(C)cc3)cc2)c(=O)[nH]c1=O
  cell number change: 45.4%
[2]
  AC50: 29.1 µM [rising, single point]

## OCC1OC(n2cnc3c(NC4CCCCC4)ncnc32)C(O)C1O (stereo not given)
  cell number change: -3.05%
[1]
  AC50: 0.00517 µM [falling, full curve, poor fit]

## Cc1ccc(-c2nnc(SCC(=O)NCCN3C(=O)CSC3=O)n2C)cc1
  cell number change: 15%
[1]
  AC50: 0.146 µM [falling, full curve, poor fit]

## CCN(CC(=O)Nc1ccc(NC(C)=O)cc1)CC(=O)Nc1cccc(Cl)c1
  cell number change: 51.1%
[2]
  AC50: 10.3 µM [rising, partial curve, poor fit]

## COc1cccc(OCCCN2CCCCCC2)c1
  cell number change: 12.4%
[2]
  AC50: 0.461 µM [rising, single point]

## Cc1cc(/C=C2/C(=O)N(C)C(=S)N2C)c(C)n1C1CC1
[1]
  AC50: 16.4 µM [falling, partial curve, poor fit]

## CC(=O)OC1COC(N2CCc3cc(Br)c([N+](=O)[O-])cc32)C(OC(C)=O)C1OC(C)=O (stereo not given)
  cell number change: 25.9%
[1]
  AC50: 2.91 µM [rising, partial curve]

## CCCC1=NN(c2ccc([N+](=O)[O-])cc2)C(=O)/C1=C/N(C)C
  cell number change: -26.2%
[2]
  AC50: 6.51 µM [rising, partial curve, poor fit]

## CCCn1c(-c2ccc(OC)cc2)nc2c(=O)n(C)c(=O)[nH]c21
[1]
  AC50: 6.51 µM [falling, full curve]

## Cc1ccc(-c2nc(SC(C)C(=O)N3CCOCC3)n[nH]2)cc1 (stereo not given)
  cell number change: 16.1%
[2]
  AC50: 2.06 µM [rising, single point]

Reference: PubChem BioAssay AID2685 (National Center for Advancing Translational Sciences (NCATS), 2010)
